One sequence from publication PMC11475020 can be followed below.

Where a protein sequence is shown, tags need not be part of it.

The target of the data set is T1, IscR-His (Caulobacter crescentus NA1000) (UniProt A0A0H3C7T4).
T1 sequence (looked up): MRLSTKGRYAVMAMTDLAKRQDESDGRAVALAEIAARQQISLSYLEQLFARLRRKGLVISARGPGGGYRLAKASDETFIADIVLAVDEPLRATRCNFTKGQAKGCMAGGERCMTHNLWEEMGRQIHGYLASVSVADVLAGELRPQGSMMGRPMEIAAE
In words: EMSA. The conditions noted are these: holo-IscR as purified, 1 mM Mg2+, 1 mM Mn2+; 10 mM HEPES, 40 mM KCl, 1 mM MgCl2, 1 mM MnCl2, 5% glycerol, 0.1 mg/ml salmon sperm DNA, 500 ng probe, pH not stated, 30 min room temperature; recombinant protein; residues 1-158; protein details: C-terminal His6 (pET28a); probe letters rebuilt from the primers and the genome.

For the sequence “GAATTCCTTGGCCAGGCGATAGCCGCCGCCGGGACCCCGGGCGCTGATCACCAGACCCTTGCGGCGCAGGCGCGCGAAAAGCTGTTCGAGATAGGAAAGCGAGATCTGCTGGCGCGCGGCGATCTCGGCCAGCGCCACGGCGCGACCATCGCTTTCGTCCTGGCGTTTGGCCAGGTCGGTCATCGCCATCACGGCGTATCGGCCTTTGGTGCTCAGGCGCATCAGCCTTACCCCTTGCAGATTCCGCGCGCATCGGCTTTTGCGTGTGCTACAAGCCGCGACTTCGCGCGCGGACCATCTGTCCGCATTGCGGCTGCGATTTAGGAAGACCAAGCGCGGCGGTCAAGTATTCCGGCCCCTAAAAAGCCGGGCTCCGCCGTCGCCAGCTGAAGGGGACGATATGCCTGATGTGATTTTGACCGGCGCGTCCGGCCGGATCGAGGGTCGAATTC (double strand) [iscR promoter fragment A]”, the binding result is listed as “binds”.
